Results taken from the supplement of paper PMC10849652.
Some of the results follow.

Amino acid sequences for entries named in this document (tags omitted). A change or cut given only in a name is not applied to a line headed by its entry.
UniProt P10768: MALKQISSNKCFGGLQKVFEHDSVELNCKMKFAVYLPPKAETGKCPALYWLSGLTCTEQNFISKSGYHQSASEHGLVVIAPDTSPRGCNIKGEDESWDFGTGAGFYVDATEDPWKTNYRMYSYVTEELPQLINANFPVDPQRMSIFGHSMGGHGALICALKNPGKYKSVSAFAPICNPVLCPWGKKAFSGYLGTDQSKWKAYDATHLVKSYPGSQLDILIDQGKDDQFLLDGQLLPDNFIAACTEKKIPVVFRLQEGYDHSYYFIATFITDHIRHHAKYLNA
UniProt Q9UPT5: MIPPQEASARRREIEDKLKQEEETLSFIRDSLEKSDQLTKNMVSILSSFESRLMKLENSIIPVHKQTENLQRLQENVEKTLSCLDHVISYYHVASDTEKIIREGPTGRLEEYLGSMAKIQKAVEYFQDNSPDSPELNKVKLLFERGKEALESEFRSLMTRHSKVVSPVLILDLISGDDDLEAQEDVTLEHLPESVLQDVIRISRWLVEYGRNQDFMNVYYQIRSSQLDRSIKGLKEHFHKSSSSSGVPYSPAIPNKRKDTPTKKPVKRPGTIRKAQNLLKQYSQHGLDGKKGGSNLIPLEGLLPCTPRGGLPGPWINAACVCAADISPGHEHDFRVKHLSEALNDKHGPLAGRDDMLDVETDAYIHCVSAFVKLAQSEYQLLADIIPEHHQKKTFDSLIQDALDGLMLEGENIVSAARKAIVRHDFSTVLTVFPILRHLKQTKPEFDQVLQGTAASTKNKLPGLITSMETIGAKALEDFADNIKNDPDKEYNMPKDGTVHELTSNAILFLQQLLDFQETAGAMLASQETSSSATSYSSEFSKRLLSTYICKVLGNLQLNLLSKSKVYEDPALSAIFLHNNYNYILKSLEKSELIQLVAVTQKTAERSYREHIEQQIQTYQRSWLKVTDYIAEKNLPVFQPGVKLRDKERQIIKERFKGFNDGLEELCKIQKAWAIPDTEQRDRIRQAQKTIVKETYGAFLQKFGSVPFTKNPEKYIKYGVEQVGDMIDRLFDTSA
UniProt O60645: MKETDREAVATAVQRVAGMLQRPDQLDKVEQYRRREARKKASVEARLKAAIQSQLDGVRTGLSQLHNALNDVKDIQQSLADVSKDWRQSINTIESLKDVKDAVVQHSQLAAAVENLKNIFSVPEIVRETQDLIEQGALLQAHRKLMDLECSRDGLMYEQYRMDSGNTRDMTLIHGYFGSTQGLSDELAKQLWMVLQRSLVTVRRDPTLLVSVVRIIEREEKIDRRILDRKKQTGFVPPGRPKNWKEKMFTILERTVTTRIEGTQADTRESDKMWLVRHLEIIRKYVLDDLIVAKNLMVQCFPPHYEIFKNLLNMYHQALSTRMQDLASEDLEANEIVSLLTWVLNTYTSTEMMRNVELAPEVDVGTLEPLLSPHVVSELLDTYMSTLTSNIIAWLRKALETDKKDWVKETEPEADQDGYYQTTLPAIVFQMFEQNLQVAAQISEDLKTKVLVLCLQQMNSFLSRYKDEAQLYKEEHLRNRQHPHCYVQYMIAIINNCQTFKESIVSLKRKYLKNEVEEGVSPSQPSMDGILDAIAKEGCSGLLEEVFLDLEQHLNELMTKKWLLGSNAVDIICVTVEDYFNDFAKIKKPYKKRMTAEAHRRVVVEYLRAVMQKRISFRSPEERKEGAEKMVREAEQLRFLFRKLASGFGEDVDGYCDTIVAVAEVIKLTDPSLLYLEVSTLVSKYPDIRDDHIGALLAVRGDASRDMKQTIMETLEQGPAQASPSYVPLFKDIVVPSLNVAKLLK
UniProt O43909: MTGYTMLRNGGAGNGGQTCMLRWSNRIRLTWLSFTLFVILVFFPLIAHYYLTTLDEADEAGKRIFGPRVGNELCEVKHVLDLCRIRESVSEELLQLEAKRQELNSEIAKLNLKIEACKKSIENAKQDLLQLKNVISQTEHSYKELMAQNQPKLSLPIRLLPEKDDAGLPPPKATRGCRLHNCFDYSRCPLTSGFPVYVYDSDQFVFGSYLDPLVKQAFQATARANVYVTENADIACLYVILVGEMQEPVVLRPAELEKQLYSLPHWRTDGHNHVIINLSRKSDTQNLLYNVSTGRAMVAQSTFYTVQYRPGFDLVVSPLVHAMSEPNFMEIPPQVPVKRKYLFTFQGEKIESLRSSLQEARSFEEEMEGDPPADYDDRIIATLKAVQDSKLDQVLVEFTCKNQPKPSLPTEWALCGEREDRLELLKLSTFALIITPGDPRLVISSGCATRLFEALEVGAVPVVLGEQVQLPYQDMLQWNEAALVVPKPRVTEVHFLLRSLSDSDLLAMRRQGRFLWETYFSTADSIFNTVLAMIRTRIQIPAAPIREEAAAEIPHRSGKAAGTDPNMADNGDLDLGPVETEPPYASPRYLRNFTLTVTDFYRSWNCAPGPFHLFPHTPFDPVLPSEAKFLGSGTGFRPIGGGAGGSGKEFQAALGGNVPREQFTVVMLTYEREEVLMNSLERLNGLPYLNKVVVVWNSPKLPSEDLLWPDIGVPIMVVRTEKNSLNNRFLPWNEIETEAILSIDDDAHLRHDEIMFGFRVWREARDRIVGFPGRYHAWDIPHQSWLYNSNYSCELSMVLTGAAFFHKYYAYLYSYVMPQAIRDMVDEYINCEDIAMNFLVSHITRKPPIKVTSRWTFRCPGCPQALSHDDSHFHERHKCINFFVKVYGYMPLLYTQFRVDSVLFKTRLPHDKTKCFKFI
UniProt Q9H8W3: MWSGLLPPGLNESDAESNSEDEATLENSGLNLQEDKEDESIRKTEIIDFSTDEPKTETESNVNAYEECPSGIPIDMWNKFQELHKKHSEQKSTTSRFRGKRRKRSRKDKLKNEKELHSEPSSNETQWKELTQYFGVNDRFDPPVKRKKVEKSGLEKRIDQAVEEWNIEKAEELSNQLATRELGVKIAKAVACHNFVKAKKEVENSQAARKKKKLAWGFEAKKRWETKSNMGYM
UniProt Q8WUF8: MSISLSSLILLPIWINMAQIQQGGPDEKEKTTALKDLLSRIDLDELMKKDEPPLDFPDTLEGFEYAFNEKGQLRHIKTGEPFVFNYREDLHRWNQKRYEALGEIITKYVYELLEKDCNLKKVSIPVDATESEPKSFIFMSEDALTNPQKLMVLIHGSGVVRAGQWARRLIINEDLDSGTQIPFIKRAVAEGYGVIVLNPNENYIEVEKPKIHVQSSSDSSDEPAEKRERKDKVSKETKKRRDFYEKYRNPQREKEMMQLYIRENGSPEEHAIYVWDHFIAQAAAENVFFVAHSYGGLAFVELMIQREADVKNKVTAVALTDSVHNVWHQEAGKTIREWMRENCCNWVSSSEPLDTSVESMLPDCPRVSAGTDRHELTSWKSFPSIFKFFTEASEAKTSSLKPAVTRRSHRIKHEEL
UniProt O60447: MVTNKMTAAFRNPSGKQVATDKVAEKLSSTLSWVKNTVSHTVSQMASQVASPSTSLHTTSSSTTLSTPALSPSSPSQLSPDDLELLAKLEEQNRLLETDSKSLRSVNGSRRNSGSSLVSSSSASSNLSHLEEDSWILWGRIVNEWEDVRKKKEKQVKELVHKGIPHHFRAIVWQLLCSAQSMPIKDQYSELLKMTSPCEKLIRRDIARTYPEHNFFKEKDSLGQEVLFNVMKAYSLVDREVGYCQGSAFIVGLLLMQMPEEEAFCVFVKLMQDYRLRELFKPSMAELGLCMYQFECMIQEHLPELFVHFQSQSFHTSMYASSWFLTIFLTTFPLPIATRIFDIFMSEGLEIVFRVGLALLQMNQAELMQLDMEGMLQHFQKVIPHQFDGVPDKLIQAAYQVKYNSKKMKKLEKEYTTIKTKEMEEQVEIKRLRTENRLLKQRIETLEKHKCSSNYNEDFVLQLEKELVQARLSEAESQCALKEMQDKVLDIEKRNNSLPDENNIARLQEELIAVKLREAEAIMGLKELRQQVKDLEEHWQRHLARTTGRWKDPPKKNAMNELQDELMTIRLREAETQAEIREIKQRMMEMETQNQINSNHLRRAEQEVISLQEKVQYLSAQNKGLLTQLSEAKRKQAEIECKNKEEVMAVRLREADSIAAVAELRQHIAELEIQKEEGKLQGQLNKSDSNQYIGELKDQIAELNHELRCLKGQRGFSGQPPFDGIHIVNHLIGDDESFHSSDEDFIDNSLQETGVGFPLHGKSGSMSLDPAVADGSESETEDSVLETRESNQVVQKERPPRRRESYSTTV
UniProt P84090, whole entry, looked up: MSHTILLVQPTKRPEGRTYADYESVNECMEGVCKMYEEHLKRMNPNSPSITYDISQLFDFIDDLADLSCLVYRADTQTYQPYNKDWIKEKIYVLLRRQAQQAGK
UniProt P07992: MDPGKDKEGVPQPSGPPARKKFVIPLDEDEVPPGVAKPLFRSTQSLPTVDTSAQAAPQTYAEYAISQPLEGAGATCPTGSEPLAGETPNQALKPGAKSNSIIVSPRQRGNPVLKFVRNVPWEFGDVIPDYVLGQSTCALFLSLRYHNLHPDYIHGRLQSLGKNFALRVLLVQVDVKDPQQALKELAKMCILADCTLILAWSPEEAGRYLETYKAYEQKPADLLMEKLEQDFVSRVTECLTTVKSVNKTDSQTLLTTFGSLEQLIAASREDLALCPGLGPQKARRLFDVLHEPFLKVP
UniProt Q8IV48: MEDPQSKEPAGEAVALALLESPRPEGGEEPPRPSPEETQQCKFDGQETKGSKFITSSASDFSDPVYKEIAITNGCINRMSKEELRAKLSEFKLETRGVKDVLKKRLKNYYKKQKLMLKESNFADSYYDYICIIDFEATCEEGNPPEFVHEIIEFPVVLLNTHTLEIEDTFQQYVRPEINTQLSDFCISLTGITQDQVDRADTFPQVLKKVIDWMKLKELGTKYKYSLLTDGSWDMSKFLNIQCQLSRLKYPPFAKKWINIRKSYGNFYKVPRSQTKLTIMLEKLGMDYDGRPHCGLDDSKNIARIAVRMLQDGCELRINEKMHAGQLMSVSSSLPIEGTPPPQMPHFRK
UniProt Q5T8I3: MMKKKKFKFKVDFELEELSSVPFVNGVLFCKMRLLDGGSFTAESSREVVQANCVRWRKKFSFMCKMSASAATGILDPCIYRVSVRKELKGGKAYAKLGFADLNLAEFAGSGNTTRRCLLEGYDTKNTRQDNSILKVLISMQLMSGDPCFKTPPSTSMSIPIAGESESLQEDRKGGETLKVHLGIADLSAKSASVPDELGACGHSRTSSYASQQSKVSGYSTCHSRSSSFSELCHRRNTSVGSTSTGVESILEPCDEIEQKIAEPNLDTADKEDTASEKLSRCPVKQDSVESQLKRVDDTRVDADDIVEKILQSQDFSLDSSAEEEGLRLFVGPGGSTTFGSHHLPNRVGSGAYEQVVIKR
UniProt Q8N0U4: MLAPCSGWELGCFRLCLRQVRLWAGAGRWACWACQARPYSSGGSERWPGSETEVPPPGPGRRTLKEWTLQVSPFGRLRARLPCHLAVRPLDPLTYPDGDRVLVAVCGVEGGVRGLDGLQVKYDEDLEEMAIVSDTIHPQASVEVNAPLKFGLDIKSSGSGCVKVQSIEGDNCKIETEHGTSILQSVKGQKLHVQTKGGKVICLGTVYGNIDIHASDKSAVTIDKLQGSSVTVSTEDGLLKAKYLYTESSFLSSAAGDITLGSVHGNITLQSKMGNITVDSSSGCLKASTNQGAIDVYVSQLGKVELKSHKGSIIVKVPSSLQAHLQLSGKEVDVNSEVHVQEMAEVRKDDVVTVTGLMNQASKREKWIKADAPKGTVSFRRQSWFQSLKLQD
UniProt Q96PV7: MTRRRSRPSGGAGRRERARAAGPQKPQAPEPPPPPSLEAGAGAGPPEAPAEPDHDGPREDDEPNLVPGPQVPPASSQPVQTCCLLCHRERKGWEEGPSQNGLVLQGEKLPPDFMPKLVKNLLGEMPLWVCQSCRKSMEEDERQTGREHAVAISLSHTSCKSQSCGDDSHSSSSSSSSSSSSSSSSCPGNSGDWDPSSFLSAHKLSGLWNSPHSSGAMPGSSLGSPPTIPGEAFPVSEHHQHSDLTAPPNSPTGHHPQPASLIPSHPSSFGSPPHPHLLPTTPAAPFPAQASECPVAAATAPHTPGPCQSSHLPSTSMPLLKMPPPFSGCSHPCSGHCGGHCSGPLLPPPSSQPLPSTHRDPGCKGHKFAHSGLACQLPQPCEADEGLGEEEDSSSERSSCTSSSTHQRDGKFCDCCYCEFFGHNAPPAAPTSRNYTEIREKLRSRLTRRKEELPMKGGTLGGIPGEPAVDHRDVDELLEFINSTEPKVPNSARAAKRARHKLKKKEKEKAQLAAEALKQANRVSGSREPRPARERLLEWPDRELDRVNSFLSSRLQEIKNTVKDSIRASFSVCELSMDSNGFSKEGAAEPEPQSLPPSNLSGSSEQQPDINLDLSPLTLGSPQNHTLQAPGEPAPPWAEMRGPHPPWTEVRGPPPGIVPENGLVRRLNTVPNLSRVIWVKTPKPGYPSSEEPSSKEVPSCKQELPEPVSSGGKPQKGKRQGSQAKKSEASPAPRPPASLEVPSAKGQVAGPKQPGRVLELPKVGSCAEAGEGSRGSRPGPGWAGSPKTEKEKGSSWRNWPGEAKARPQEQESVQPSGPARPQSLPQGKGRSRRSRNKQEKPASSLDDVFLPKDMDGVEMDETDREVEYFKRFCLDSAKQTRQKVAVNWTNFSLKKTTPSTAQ

Tests used:
Assay in all cases: log2 fold change, soluble protein after heating vs DMSO (PISA); higher = thermal stabilisation; K562 cells, 10 uM, 30 min; active = over 0.2 and 3.5 SD of the protein, either way, in both replicates (recomputed)
[1] = compound: CC1=C(C=C(C=C1)NC(=O)C2=CC(=CC=C2)C(C)(C)C#N)NC3=CC4=C(C=C3)N=CN(C4=O)C
Summary of the method: (§1)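 K562 cells at 2×10^6 cells/mL were exposed to 10 μM compound for 30 min, then aliquots were heated for 3 min across 48°C-58°C, pooled, and extracted in PBS containing 0.5% NP-40 at 4°C. The supernatant after 21,000xg for 90 min was taken as soluble protein and measured by TMTpro 16plex LC-MS/MS with channel sums equalised. Thermal stability is reported relative to control samples, with values from duplicates. Fold changes are given on a log2 scale.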

[2] = compound: CC1=C(C=C(C=C1)NC(=O)C2=CC(=CC=C2)N(C)C)NC(=O)C3=CC=C(C=C3)O
Summary of the method: as §1

[3] = compound: CC1=CC=C(C=C1)SC2=C3C=C(SC3=CN=C2)C(=O)N
Summary of the method: as §1

[4] = compound: CC1=NC(=CC=C1)C2=C(N=C(N2)C(C)(C)C)C3=CC4=NC=CN=C4C=C3
Summary of the method: as §1

Nexturastat A = compound: CCCCN(Cc1ccc(C(=O)NO)cc1)C(=O)Nc1ccccc1 [Nexturastat A]
Summary of the method: as §1

vemurafenib = compound: CCCS(=O)(=O)Nc1ccc(F)c(C(=O)c2c[nH]c3ncc(-c4ccc(Cl)cc4)cc23)c1F [vemurafenib]
Summary of the method: as §1

[5] = compound: CCCS(=O)(=O)Nc1ccc(F)c(C(=O)c2c[nH]c3ncc(Cl)cc23)c1F
Summary of the method: as §1

[6] = compound: CCCc1cc(C)[nH]c(=O)c1CNC(=O)c1cc(-c2ccnc(N3CCN(C)CC3)c2)cc2c1cnn2C(C)C
Summary of the method: as §1

givinostat = compound: CCN(CC)Cc1ccc2cc(COC(=O)Nc3ccc(C(=O)NO)cc3)ccc2c1 [givinostat]
Summary of the method: as §1

barasertib = compound: CCN(CCCOc1ccc2c(Nc3cc(CC(=O)Nc4cccc(F)c4)[nH]n3)ncnc2c1)CCOP(=O)(O)O [barasertib]
Summary of the method: as §1

Measured: log2 fold change

ESD (UniProt P10768)
inactive: [1] 0.008 | [2] 0.014 | [3] 0.037 | [4] 0 | Nexturastat A -0.1 | vemurafenib 0.024 | [5] 0.03 | [6] -0.072 | givinostat -0.184 | barasertib -0.01

EXOSC3 (UniProt Q9NQT5)
inactive: [1] -0.004 | [2] -0.062 | [3] -0.002 | [4] 0.019 | Nexturastat A 0.046 | vemurafenib 0.041 | [5] -0.041 | [6] -0.029 | givinostat 0.043 | barasertib -0.005

EXOC7 (UniProt Q9UPT5)
inactive: [1] -0.116 | [2] -0.057 | [3] -0.014 | [4] -0.05 | Nexturastat A 0.065 | vemurafenib 0.032 | [5] 0.07 | [6] 0.079 | givinostat 0.09 | barasertib 0.036

EPPK1 (UniProt P58107)
inactive: [1] 0.108 | [2] 0.02 | [3] 0.091 | [4] -0.134 | Nexturastat A 0.34 | vemurafenib -0.173 | [5] -0.317 | [6] 0.135 | givinostat 0.133 | barasertib 0.034

F11R (UniProt Q9Y624)
inactive: [1] -0.026 | [2] -0.026 | [3] 0.052 | [4] -0.027 | Nexturastat A 0.012 | vemurafenib 0.008 | [5] -0.03 | [6] -0.033 | givinostat -0.024 | barasertib -0.016

ETHE1 (UniProt O95571)
inactive: [1] -0.046 | [2] 0.006 | [3] -0.029 | [4] 0.003 | Nexturastat A -0.054 | vemurafenib -0.046 | [5] -0.011 | [6] -0.05 | givinostat -0.062 | barasertib -0.069

ESYT2 isoform 2 (UniProt A0FGR8)
inactive: [1] 0.007 | [2] -0.011 | [3] 0.003 | [4] 0.024 | Nexturastat A 0.002 | vemurafenib 0.01 | [5] -0.016 | [6] -0.037 | givinostat 0.029 | barasertib 0.029

ETF1 (UniProt P62495)
inactive: [1] 0.006 | [2] -0.007 | [3] 0.002 | [4] 0.004 | Nexturastat A -0.02 | vemurafenib 0.007 | [5] 0.017 | [6] -0.027 | givinostat 0.007 | barasertib 0.01

ERCC4 (UniProt Q92889)
inactive: [1] 0.053 | [2] -0.071 | [3] 0.001 | [4] 0.022 | Nexturastat A -0.077 | vemurafenib -0.076 | [5] 0 | [6] -0.755 | givinostat 0.061 | barasertib 0.101

FAF1 (UniProt Q9UNN5)
inactive: [1] 0.011 | [2] 0.02 | [3] 0.007 | [4] 0.031 | Nexturastat A -0.033 | vemurafenib 0.02 | [5] 0.03 | [6] -0.026 | givinostat -0.035 | barasertib -0.009

EXOC4 (UniProt Q96A65)
inactive: [1] -0.021 | [2] 0.029 | [3] 0.021 | [4] 0.001 | Nexturastat A 0.209 | vemurafenib -0.003 | [5] 0.098 | [6] 0.01 | givinostat 0.133 | barasertib 0.139

ERCC5 (UniProt P28715)
inactive: [1] -0.115 | [2] -0.106 | [3] -0.116 | [4] 0.101 | Nexturastat A -0.077 | vemurafenib -0.062 | [5] 0.009 | [6] 0.037 | givinostat 0.005 | barasertib 0.071

F5 (UniProt P12259)
inactive: [1] 0.056 | [2] 0.036 | [3] -0.027 | [4] 0.011 | Nexturastat A -0.04 | vemurafenib 0.066 | [5] -0.016 | [6] -0.036 | givinostat -0.01 | barasertib 0.034

EXOC3 (UniProt O60645)
inactive: [1] -0.031 | [2] -0.035 | [3] -0.024 | [4] -0.091 | Nexturastat A 0.174 | vemurafenib -0.072 | [5] 0.054 | [6] 0.07 | givinostat 0.128 | barasertib 0.029

EXTL3 (UniProt O43909)
inactive: [1] -0.198 | [2] -0.083 | [3] -0.055 | [4] 0.055 | Nexturastat A -0.098 | vemurafenib -0.026 | [5] -0.02 | [6] 0.077 | barasertib 0.069

EPG5 (UniProt Q9HCE0)
inactive: [1] -0.069 | [2] -0.043 | Nexturastat A -0.073

FAM204A (UniProt Q9H8W3)
inactive: [1] -0.278 | Nexturastat A -0.036 | vemurafenib -0.168 | [6] 0.069 | givinostat -0.061

F10 (UniProt P00742)
inactive: [1] -0.016 | [2] 0.331 | [4] 0.118 | Nexturastat A 0.056 | vemurafenib 0.085 | [6] -0.063 | givinostat 0.067 | barasertib -0.032

FAM172A (UniProt Q8WUF8)
inactive: [1] -0.031 | Nexturastat A -0.133 | vemurafenib -0.025 | [6] 0.04 | barasertib 0.114

EVI5 isoform 2 (UniProt O60447)
inactive: [2] -0.109 | [3] -0.078 | vemurafenib 0.133 | [5] 0.162 | givinostat 0.155

ERH (UniProt P84090)
inactive: [2] -0.122 | [3] -0.084 | [4] 0.101 | Nexturastat A 0.117 | vemurafenib 0.082 | [5] -0.059 | [6] 0 | givinostat -0.018 | barasertib -0.024

EVPL (UniProt Q92817)
inactive: [1] -0.313 | [2] -0.006 | [6] -0.119

EPHB4 (UniProt P54760)
inactive: [1] 0.057 | [2] -0.07 | [3] 0.392 | [5] -0.126 | [6] 0.001

ERF (UniProt P50548)
inactive: [1] -0.551 | Nexturastat A 0.033 | givinostat -0.133

EPB41L2 isoform 4 (UniProt O43491)
inactive: [1] 0.337 | [3] 0.141 | [4] 0.333 | Nexturastat A -0.123 | [5] 0.118 | [6] -0.105 | barasertib -0.076

ETF1 isoform 2 (UniProt P62495)
inactive: [2] 0.135 | [3] -0.11 | vemurafenib -0.269 | [5] -0.19 | barasertib 0.097

Seven successive entries from above:
FAM172A (UniProt Q8WUF8)
inactive: [1] -0.031 | Nexturastat A -0.133 | vemurafenib -0.025 | [6] 0.04 | barasertib 0.114

EVI5 isoform 2 (UniProt O60447)
inactive: [2] -0.109 | [3] -0.078 | vemurafenib 0.133 | [5] 0.162 | givinostat 0.155

ERH (UniProt P84090)
inactive: [2] -0.122 | [3] -0.084 | [4] 0.101 | Nexturastat A 0.117 | vemurafenib 0.082 | [5] -0.059 | [6] 0 | givinostat -0.018 | barasertib -0.024

EVPL (UniProt Q92817)
inactive: [1] -0.313 | [2] -0.006 | [6] -0.119

EPHB4 (UniProt P54760)
inactive: [1] 0.057 | [2] -0.07 | [3] 0.392 | [5] -0.126 | [6] 0.001

ERF (UniProt P50548)
inactive: [1] -0.551 | Nexturastat A 0.033 | givinostat -0.133

EPB41L2 isoform 4 (UniProt O43491)
inactive: [1] 0.337 | [3] 0.141 | [4] 0.333 | Nexturastat A -0.123 | [5] 0.118 | [6] -0.105 | barasertib -0.076

Remaining list, next part.

ERCC6L (UniProt Q2NKX8)
inactive: [1] -0.064 | [2] 0.008 | [3] -0.048 | [4] -0.053 | Nexturastat A 0.348 | vemurafenib 0.107 | [5] -0.065 | barasertib -0.114

ERCC8 (UniProt Q13216)
inactive: [1] -0.065 | [2] -0.027 | [3] 0.001 | [4] 0.038 | vemurafenib -0.139 | [5] -0.143 | [6] -0.055 | givinostat -0.007 | barasertib -0.021

ERCC1 isoform 3 (UniProt P07992)
inactive: [1] 0.24 | [2] 0.069 | [3] -0.047 | [5] -0.412

ERI1 (UniProt Q8IV48)
inactive: [2] 0.036 | [4] -0.107 | Nexturastat A 0.287 | vemurafenib -0.046 | [6] 0.077

FAM102B (UniProt Q5T8I3)
inactive: [2] 0.01 | [3] -0.002 | Nexturastat A 0.004 | vemurafenib -0.129 | [5] -0.065

ESYT2 (UniProt H7BXI1)
inactive: [1] -0.081 | [3] -0.034 | Nexturastat A 0.156 | vemurafenib 0.133 | [5] -0.023 | [6] 0.09 | givinostat 0.009 | barasertib -0.075

FAM185A (UniProt Q8N0U4)
inactive: [2] -0.046 | [3] -0.034 | [4] -0.15 | vemurafenib -0.069 | [5] -0.062 | [6] -0.034 | givinostat 0.107 | barasertib 0.014

FAM193B (UniProt Q96PV7)
inactive: [1] -0.16 | [3] -0.114 | [4] -0.034 | Nexturastat A 0.054 | vemurafenib -0.114 | [5] 0.005 | barasertib 0.045
